Measurements: US9198890B2, “Compositions and methods for treating and preventing coronary heart disease” (priority 2011, dated 2015)
At least one compound was matched to its structure with a doubt left.

Tested on: elderly individuals at risk of vascular disease
Assay: PROSPER study: incidence of CHD death or nonfatal MI on trial
Format: in vivo, human
Conditions: Pravastatin group
Method: Statistical analysis: Observed genotype frequencies were compared with those expected under Hardy-Weinberg equilibrium using a χ2 test. For data analysis, multivariable analysis of covariance (ANCOVA) was performed to detect associations between the lipoprotein levels at baseline as well as changes in response to the treatment with Pravastatin at 6 months and with SLCO1B1 genotypes adjusted for gender, body mass index, age, alcohol, smoking, diabetes, apoE phenotype, and country of origin, since subjects participating in PROSPER were either from Scotland, Ireland, or the Netherlands. […] Lewontin's D value was calculated to assess the linkage disequilibrium (LD) between the two SNPs of interest (Lewontin R C. The interaction of selection and linkage. II. Optimum models. Genetics 1964; 50:757-82). […]

SMILES: CC[C@H](C)C(=O)O[C@H]1C[C@H](O)C=C2C=C[C@H](C)[C@H](CC[C@@H](O)C[C@@H](O)CC(=O)O)[C@H]21 [Pravastatin, pravastatin]
- Number of new case/Total subjects (%), CHD death or nonfatal MI on trial (SLCO1B1 388 A > G genotype AG): 129/1214
- Number of new case/Total subjects (%), CHD death or nonfatal MI on trial (SLCO1B1 625 T > C genotype TT): 195/1912
